The source of these data is PMC12370193, “An L-fucose-responsive transcription factor cross-regulates the expression of a diverse array of carbohydrate-active enzymes in Trichoderma reesei” (PLOS Genetics, 2025).

For at least one entry, the source does not settle the construct or the ends of the probe. A negative result means that nothing was seen under these conditions. Protein sequences can lack the tags named with them.

The series concerns T1, GST-FUR1BD (Trichoderma reesei (QMP, derived from QM9414)).
T1 sequence: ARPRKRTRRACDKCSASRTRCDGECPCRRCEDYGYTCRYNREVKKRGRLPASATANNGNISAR
Put plainly: EMSA. Conditions: 0.8 ug protein, 20 fmol probe; LightShift Chemiluminescent EMSA kit binding buffer (composition, salt, pH not given), 15 C, 25 min; 6% native PAGE at 4 C; recombinant protein; protein details: N-terminal GST (pGEX-4T-1); label: biotin.

As to “CCCCATTATACGGCTAAACTATTTACCAG (double strand)”, the binding result is listed as “no binding”.

With “CCCCATTATACCCGTCGGCTATTTACCAG (double strand) [fdh1 upstream wild-type probe]”, the binding result is given as “binds”.
